Data as given in patent US20080274117A1.
No constants are given. Whether binding was seen depends on the method and setting. Binding seen in cells or lysates may run through a third protein. Some results given as binding are weak or reduced against the parent protein; the word gives no strength. Sequences can lack the tags named with a protein.

Legend:
[1] = biological target: T1, human TSSK2 (myc tagged), in vitro translated (human) (UniProt Q96PF2); assay: co-immunoprecipitation of in vitro co-translated tagged proteins, SDS-PAGE and blot
T1 sequence: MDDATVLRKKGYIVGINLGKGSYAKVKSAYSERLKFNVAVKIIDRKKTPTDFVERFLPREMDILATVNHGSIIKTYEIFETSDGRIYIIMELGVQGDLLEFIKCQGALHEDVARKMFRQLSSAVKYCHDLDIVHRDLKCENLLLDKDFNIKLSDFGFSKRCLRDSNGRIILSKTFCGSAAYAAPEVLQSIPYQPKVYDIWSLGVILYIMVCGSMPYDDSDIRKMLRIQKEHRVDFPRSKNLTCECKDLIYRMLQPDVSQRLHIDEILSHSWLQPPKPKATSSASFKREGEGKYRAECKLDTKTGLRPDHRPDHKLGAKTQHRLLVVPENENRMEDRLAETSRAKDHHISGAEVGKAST

[2] = biological target: T1, human TSSK2 (myc tagged), in vitro translated (human); assay: in-vitro co-immunoprecipitation

binding [1]: binds
binding [2]: binds
B1: human TSKS (HA tagged), in vitro translated (protein, not shown: small tags and cut ends)
chain: MASVVVKTIWQSKEIHEAGDTPTGVESCSQLVPEAPRRVTSRAKGIPKKKKAVSFHGVEPQMSHQPMHWCLNLKRSSACTNVSLLNLAAMEPTDSTGTDSTVEDLSGQLTLAGPPASPTLPWDPDDADITEILSGVNSGLVRAKDSITSLKEKTNRVNQHVQSLQSECSVLSENLERRRQEAEELEGYCIQLKENCWKVTRSVEDAEIKTNVLKQNSALLEEKLRYLQQQLQDETPRRQEAELQEPEEKQEPEEKQEPEEKQKPEAGLSWNSLGPAATSQGCPGPPGSPDKPSRPHGLVPAGWGMGPRAGEGPYVSEQELQKLFTGIEELRREVSSLTARWHQEEGAVQEALRLLGGLGGRVDGFLGQWERAQREQAQTARDLQELRGRADELCTMVERSAVSVASLRSELEGLGPLKPILEEFGRQFQNSRRGPDLSMNLDRSHQGNCARCASQGSQLSTESLQQLLDRALTSLVDEVKQRGLTPACPSCQRLHKKILELERQALAKHVRAEALSSTLRLAQDEALRAKNLLLTDKMKPEEKMATLDHLHLKMCSLHDHLSNLPLEGSTGTMGGGSSAGTPPKQGGSAPEQ
